# From paper PMC12256043, “Integrated platform for structural and functional analysis of terpene synthases of Cannabis sativa” (PeerJ, 2025)
# No constants are given. Whether binding was seen depends on the method and setting.
# B1: CsTPS19BL, nerolidol/linalool synthase (enzyme, UniProt A0A4Y5QZ62 1-554)
# chain: MALSIMSSYASFRPFKPSSSLSSSQNIIRNFDENSKYHIRSNGDLTPQKDLDKYRDVLRKADPFDEGLKMIDAIQRLGIDYIFEEEIDKIIQSQSAYKFFREFEHDHHHHQDLYDVALRFRLLRQHGHFVPADIFNKYKDNNKGCFDTRLREDIKGLLSLYEASHLCIEGENILDEAALFSAQHLEASMTRLHRYDQYQAKYVATTLQNPTHKSLSKFTAKDLFGVYPSENGYINLFQQLAKVEFNRVQSLHRMEIDKVTRWWRDIGLAKELTFARDQPVKWYIWSMACLTDPILSKQRVALTKSISFIYVIDDIFDMYSSLDELILFTQAVSSWEYSAIEKLPDSMKTCFKALDNMINESSHTIYQKRGWSPLHSLRKTWASLCEAFLVEAKWFASRHVPKAKEYLENGVVSSGVHVVLVHIFVLLDETSLTQKTLDFVENMPSIITSTASILRLWDDFGSAKDENQEGHDGSYVECYMKELGGSVEDAREEMMEKISDAWKCLNKECILRNPAFPPPFLKASLNLARLVPLMYNYDHNQRLPHLEEHIKSLL
# B2: CsTPS9FN, β-caryophyllene/α-humulene synthase (enzyme, UniProt A0A7J6HK32 1-556)
# chain: MSYQVLASSQNDKVSKIVRPTTTYQPSIWGERFLQYSISDQDFSYKKQRVDELKEVVRREVFLECYDNVSYVLKIVDDVQRLGLSYHFENEIEKALQHIYDNTIHQNHKDEDLHDTSTRFRLLRQHGFMVSSNIFKIFKDEQGNFKECLITDIPGLLSLYEASHLSYIGENILDEALAFTTTHLHQFVKNEKTHPLSNEVLLALQRPIRKSLERLHARHYISSYENKICHNKTLLELAKLDFNLLQCLHRKELSQISRWWKEIDFVHKLPFARDRIVELYLWLLGVFHEPELSLARIISTKVIALASVADDIYDAYGTFEELELLTESINRWDLNCADQLRPECLQTFYKVLLNCYEEFESELGKEESYKVYYAREAMKRLLGAYFSEARWLHEGYFPSFDEHLKVSLISCGYTMMIVTSLIGMKDCVTKQDFEWLSKDPKIMRDCNILCRFMDDIVSHKFEQQRDHSPSTVESYMRQYGVSEQEACDELRKQVINSWKEINKAFLRPSNVPYPVLSLVLNFSRVMDLLYKDGDGYTHIGKETKNSVVALLIDQIP
# B3: CsTPS16CC, germacrene-B synthase (enzyme, UniProt A0A4Y5L9K3 1-571)
# chain: MSSQVLASSQKNDKTQNIIRPTTKFHPPIWGDRFLHYNISEQELEYKEGQVEELKEVVRKEIFHGNNKRNIINVSKQLKLIDDVERLGLSYHFESEIEKKLQHIYEITTNNIDHQDQHYYYSNHDEDLHDVSIRFRLLRQHGFNISSNIFEKFKDESGKFKESLKSDIEGMLSLYEASYLSYVEENILDEALAFTTTNLKLVANKKEHPLSHEISLALYRPLRKTLVRLYARHYISIYEKQPSHNKVLLQFAKLDFNLLQSLHKKELSEISRWWKELDLANKLPFARNRIVELYLWILGVFHEPQFSLARKILIKAISMASVADDIYDAYGTFEELELLTEAILRWDISFIDKLSPDYLKTYYKVFLNSYEECEKDLKKEERYKLHYAKESMKKLIQAYFHEAQWLNQGHFPSFDEHLKVSFVSSGYPMLIETSFVGMQDVKTNQVFEWLSTQPKIFRACTIISRFMDDLVSRKFEQERNHVPSTVDCYMKQYGVSEQEACDELNKQVVNLWKEINQEFLRPTSMPSSILVRILNFTKVLDIIYKEGDGYTHVGKLVKDSVAALLIDPIPL
# B4: CsTPS20CT, hedycaryol synthase (enzyme, UniProt A0A4Y5QVX6 1-551)
# chain: MSNIQVLASSQLSDKIIARPTTKFHPSIWGDRFLHYNISEQDLVCKQEKVEELIQVVKKEILSSNHDQLKLIDNLQRLGLSYHFESEIEKLLEQLSITHHQNHHDLHDASLWFRLLRQHGFNVSSSIFEKFKDEEGNFKESLITDVPGLLSLYEASHLSYVGESILDEALAFTTTHLKAIVANSKDHPLSHQISIVLHRPLRKTIERLHARFYISIYEKDASHNKLLLELAKLDFNLLQCFHKKELSEITRWWKEHEFAKKFPFARDRMVELYFWILGVYYEPKYSRARKLLTKVIALTSITDDIYDAYGTIDELQLLTKAIQRWDINCMDKLKQEYLKTYYKVMLDSYEEFEKELKKEELYKLEYAKEEMKRIIGGYFEEARWLNEGYFPSFDEHLRVSYVSSGNVLLIATSFVGMHDVVTHETLDWLSKDPKIVSASTLLSRFMDDIGSRKFEQKRNHIPSTVDCYMKQYGVSEEEAIKELNKRVDTHWKEINEDFIRPAVVPFPILVRVLNFTKIVDLLYKEGDDQYTNVGKVLKESIAALLIDSIPL
# B5: CsTPS5FN, β-myrcene/(-)-α-pinene synthase (enzyme, UniProt A0A1V0QSG0 1-573)
# chain: MSLSGLISTTTFKEQPAIVRRSGNYKPPLWDAHFIQSLQVIYTEESYGKRINELKEDVRRILEKEAENPLVKLEQINDLSRLGISYHFEDQIKAILNLTYNNNNALWKKDNLYATALHFKLLRQYGFNPVSSEIFNAFKDEKKEFKESLSKDVKGMVCLYEASFYSFRGEPILDEARDFTTKHLKQYLMMTRQGQNVDHDDDNDLMVKLVEHALELPVHWRMKRLEARWFIDMYAEMSHHHHMNSTFLQLAKLDFNVVQSTYQEDLKHVVRWWKTTSLGERLPFARDRIVEIFLWSVGLKFEPQFRYCRKMLTKIGQLVTTMDDIFDVYGTLDELSLFQHALGRWDINTIDQLPDYMKIFFLATYNVVNEMAYDVLKQNGILIIKYLKKTWTDLCKCYMLEANWYHSGYTPSLEEYIKNGWISIAEPLILVNLYCLITNPIKEDDIDCLLQYPTFIRISGIIARLVDDLGTSSDELKRGDNPKSIQCYMKENGICDEKNGREHIRNLISETWKEMNEARVGESPFSQAFIETAIDFVRTAMMIYQKEQDGVGTNIDHYTKDGIISLFFTSIPI
# Tests used:
# Experiment in all cases: SEC; HiPrep 16/60 Superdex 200; 25 mM HEPES pH 7.0, 10 mM MgCl2, 100 mM KCl, 1 mM DTT; 1 mL/min; Ni-affinity eluted fractions loaded; both purified
# [1] = target: CsTPS19BL, nerolidol/linalool synthase (Cannabis sativa)
# [2] = target: CsTPS9FN, β-caryophyllene/α-humulene synthase (Cannabis sativa)
# [3] = target: CsTPS16CC, germacrene-B synthase (Cannabis sativa)
# [4] = target: CsTPS20CT, hedycaryol synthase (Cannabis sativa)
# [5] = target: CsTPS5FN, β-myrcene/(-)-α-pinene synthase (Cannabis sativa)
binder,measurement,setting,value
B1,binding,[1],no binding
B2,binding,[2],no binding
B3,binding,[3],no binding
B4,binding,[4],no binding
B5,binding,[5],no binding
